# Data as given in PubChem BioAssay AID540276 (National Center for Advancing Translational Sciences (NCATS), 2011).
# About 5,400 (1.8%) of roughly 300,000 compounds were called active. Inconclusive results, whose numbers are uncertain, are shown with a selection of clear calls. The call rests on the fitted dose curve; tested in HEK293 cells. A potency beside an inconclusive call is a rough fit, not a confirmed value.
# Assay: qHTS for inhibitors of binding or entry into cells for Marburg Virus
# Details: Marburg virus pseudotyped entry inhibition, cell reporter; series mostly up to 37.8 µM
# Potency means the concentration at half of the fitted maximal effect.
row,Structure (SMILES),Potency
1,Cc1ccc(/C=C2\CC(C)CC3=C2NC(=S)NC3c2ccc(C)cc2)cc1 (stereo not given),"inconclusive: 10 µM [inhibitor, partial curve, poor fit]"
2,COc1ccc(/C=N/Nc2cc(C)nc3ccccc23)cc1,"inconclusive: 35.5 µM [inhibitor, single point]"
3,CCCn1c(SCC(=O)c2cc(C)n(-c3ccc4c(c3)OCO4)c2C)n[nH]c1=O,"inconclusive: 12.6 µM [inhibitor, partial curve]"
4,CCNC(=O)CCc1nc(-c2ccc(C)cc2)no1,inactive
5,Cc1cc(F)ccc1S(=O)(=O)N1CCCOC1CNC(=O)C(=O)NCc1ccc2c(c1)OCO2 (stereo not given),"inconclusive: 35.5 µM [activator, single point]"
6,O=C(CN1CCN(c2ccc(Cl)cc2)CC1)NCc1ccccc1,"inconclusive: 35.5 µM [inhibitor, single point]"
7,Cc1cccc(OCC(O)CN2CCN(S(=O)(=O)c3ccc(C)cc3C)CC2)c1 (stereo not given),"inconclusive: 0.794 µM [inhibitor, full curve, poor fit]"
8,COc1ccc([N+](=O)[O-])cc1NCc1cccc([N+](=O)[O-])c1,inactive
9,O=C(O)c1ccc(N/N=C/C=C/c2ccc([N+](=O)[O-])o2)cc1,inactive
10,C/C(=N/NC(=O)OC(C)(C)C)c1ccco1,inactive
11,O=C(CNC(=O)COc1ccccc1)NCc1ccccc1F,"inconclusive: 7.94 µM [activator, partial curve, poor fit]"
12,CCOC(=O)c1cccc(Nc2c3c(nc4ccccc24)CCC3)c1,"inconclusive: 35.5 µM [inhibitor, partial curve, poor fit]"
13,CCOC(=O)c1cn(Cc2cccc(C)c2)nn1,active: 3.98 µM
14,COCC1CCN(C(=O)CCc2nnc(CCCCc3ccccc3)o2)CC1,"inconclusive: 35.5 µM [activator, single point]"
15,CC(=O)NNc1cccc(Cl)n1,"inconclusive: 1.41 µM [inhibitor, partial curve, poor fit]"
16,CN=C1SC(CC(=O)NCCc2ccc(OC)c(OC)c2)C(=O)N1C (stereo not given),"inconclusive: 31.6 µM [activator, single point]"
17,Cn1ccnc1SC(=O)N1c2ccccc2Sc2ccccc21,"inconclusive: 0.291 µM [inhibitor, partial curve, poor fit]"
18,C=CCN1CCc2c(cc(O)c(O)c2Cl)[C@H](c2ccccc2)C1,"inconclusive: 18.3 µM [inhibitor, single point]"
19,COc1cc(OC)cc(-n2nnnc2SCC(=O)N2CCCC2)c1,inactive
20,CCCCOc1ccc(C(C)(O)CCN2CCOCC2)cc1 (stereo not given),"inconclusive: 14.1 µM [activator, partial curve, poor fit]"
21,COc1ccccc1-n1nnnc1SCC(=O)NCC1(N2CCCCC2)CCCCC1,"inconclusive: 35.5 µM [inhibitor, partial curve, poor fit]"
22,Cc1ccc(C(=O)C(NC(=O)c2ccco2)N2CCOCC2)cc1 (stereo not given),inactive
23,CC(=O)c1cccc(Nc2cc(C)nc3c(C)cccc23)c1,"inconclusive: 35.5 µM [inhibitor, single point]"
24,Cc1cc(C)nc(Nc2n[nH]c(COc3ccccc3)n2)n1,"inconclusive: 3.98 µM [activator, partial curve, poor fit]"

# Single values from the results shown.
# `Cc1ccc(C(=O)C(NC(=O)c2ccco2)N2CCOCC2)cc1` (stereo not given) | Potency: inactive
# `CCOC(=O)c1cccc(Nc2c3c(nc4ccccc24)CCC3)c1` | Potency: inconclusive: 35.5 µM [inhibitor, partial curve, poor fit]
# `Cc1ccc(/C=C2\CC(C)CC3=C2NC(=S)NC3c2ccc(C)cc2)cc1` (stereo not given) | Potency: inconclusive: 10 µM [inhibitor, partial curve, poor fit]

# (list continues)

row,Structure (SMILES),Potency
1,COc1ccc(OCCCCn2c(CO)nc3ccccc32)cc1,"inconclusive: 35.5 µM [inhibitor, single point]"
2,COC(=O)Cc1cc(=O)[nH]c(/N=C(\N)Nc2ccccc2)n1,inactive
3,O=C(Nc1ccc(Cl)c(Cl)c1)Nc1nc(-c2ccccc2)cs1,"inconclusive: 3.16 µM [inhibitor, partial curve, poor fit]"
4,O=C(Nc1ccc(N2CCCC2=O)cc1)c1cccc(F)c1,"inconclusive: 18.3 µM [inhibitor, single point]"
5,O=C(CN1CCN(C(=O)c2cccc(S(=O)(=O)N3CCCC3)c2)CC1)Nc1ccc(F)cc1,inactive
6,CC(=O)c1ccc(C(=O)N2CCCC(CNC(=O)c3ccccc3Cl)C2)cc1 (stereo not given),inactive
7,O=C(O)COCC(=O)Nc1ccccc1-c1ccccc1,inactive
8,O=C(Nc1ccc2c(c1)OCO2)c1cc(-c2ccccc2Cl)on1,"inconclusive: 7.08 µM [inhibitor, partial curve, poor fit]"
9,O=C(NC1CCCC1)C1CC(c2ccc(F)cc2)=NO1 (stereo not given),inactive
10,Cc1ccc(C(=O)CSc2nnc(-c3cccnc3)n2N)cc1,"inconclusive: 7.3 µM [inhibitor, partial curve, poor fit]"
11,COCC1CCN(C(=O)c2cc(COc3ccccc3SC)on2)C1 (stereo not given),inactive
12,COc1ccc(-n2c(C)cc(C(=O)COc3ccc(C)nc3[N+](=O)[O-])c2C)cc1,inactive
13,O=C(NCC1CCCCC1)c1cc(S(=O)(=O)N2CCCCC2)ccc1N1CCOCC1,"inconclusive: 35.5 µM [inhibitor, single point]"
14,CCOC(=O)c1sc(=S)n(CC)c1NC(=O)c1ccccc1,"inconclusive: 1 µM [inhibitor, partial curve, poor fit]"
15,CCOc1cc(/C=N/N=C2/NC(=O)C(CC(=O)O)S2)ccc1OCc1ccc(Cl)cc1Cl (stereo not given),"inconclusive: 5.62 µM [inhibitor, single point]"
16,O=C(O/N=C\c1ccc(N2CCOCC2)c([N+](=O)[O-])c1)c1ccc(F)cc1,"inconclusive: 5.62 µM [activator, partial curve, poor fit]"
17,COc1ccc(CCN2C(=O)CC(Cc3cccc(C)c3)C2=O)cc1OC (stereo not given),inactive
18,CC(C)(C)n1nnnc1C(c1ccccc1F)N1CCN(C(=O)c2ccco2)CC1 (stereo not given),"inconclusive: 31.6 µM [activator, single point]"
19,CC1CCN(c2nncc3ccccc23)CC1,inactive
20,COc1cccc(CC(NC(C)=O)C(=O)NC2CCN(C(=O)C3CCCCC3)CC2)c1OC (stereo not given),"inconclusive: 1.12 µM [activator, full curve, poor fit]"
21,Cc1ccc(Cl)cc1NC(=O)C1CCC(CNS(=O)(=O)c2cccc3nsnc23)CC1 (stereo not given),inactive
22,CSc1c(CC(=O)Nc2ccc(F)cc2)n(Cc2ccccc2)c2ccccc12,"inconclusive: 35.5 µM [inhibitor, single point]"
23,CCOc1ccc(CCNC(=O)c2cc3c(=O)[nH]c4ccc(C)cc4c3s2)cc1OCC,"inconclusive: 35.5 µM [inhibitor, single point]"
24,Cc1c(NC(C)c2cc(Cl)ccc2O)c(=O)n(-c2ccccc2)n1C (stereo not given),inactive

row,Structure (SMILES),Potency
1,O=C1c2ccccc2C(=O)N1CCOc1ccccc1Br,"inconclusive: 0.316 µM [inhibitor, full curve, poor fit]"
2,O=C(c1ccc(Cn2cc(Br)cn2)cc1)N1CCN(c2ccccc2)CC1,"inconclusive: 3.26 µM [activator, single point]"
3,Cc1cc(C)cc(N(CC(=O)Nc2ccccc2C(=O)N2CCOCC2)S(C)(=O)=O)c1,"inconclusive: 31.6 µM [activator, single point]"
4,CC(C)NCC(O)Cn1c2c(c3ccccc31)CCc1c-2cnn1-c1ccccc1 (stereo not given),"inconclusive: 6.31 µM [inhibitor, single point]"
5,CCCCNC(=O)CSc1nc2ccccc2c(=O)n1Cc1ccc2c(c1)OCO2,inactive
6,COC(=O)c1ccc(Cn2nnc3sc4c(c3c2=O)CCC(C)C4)cc1 (stereo not given),"inconclusive: 7.08 µM [activator, partial curve, poor fit]"
7,O=C(CSc1ncn[nH]1)Nc1nc(-c2ccccc2)cs1,inactive
8,CCCc1cc(C(N)=O)c(NC(=O)c2ccoc2C)s1,inactive
9,O=c1c(Cl)c(Cl)cnn1Cc1ccc(F)cc1,"inconclusive: 10.3 µM [inhibitor, partial curve, poor fit]"
10,Cc1ccccc1C(=O)NC(Oc1ccccc1)C(Cl)(Cl)Cl (stereo not given),"inconclusive: 6.31 µM [activator, single point]"
11,CCOc1ccc(Nc2nc(N)c3ccccc3n2)cc1,active: 4.47 µM
12,COc1ccc(OC)c(C(C(=O)NCc2ccco2)N(C(=O)Cn2nnc3ccccc32)C(C)C)c1 (stereo not given),"inconclusive: 12.6 µM [activator, partial curve, poor fit]"
13,CCCS(=O)(=O)c1c(Nc2ccccc2C)sc(C(=O)c2ccccc2)c1N,"inconclusive: 1.58 µM [inhibitor, partial curve, poor fit]"
14,COc1ccc(Nc2nc(NCCCN3CCOCC3)nc(N)c2[N+](=O)[O-])cc1,"inconclusive: 10 µM [inhibitor, partial curve, poor fit]"
15,O=c1cnnc(N/N=C/C2CC=CCC2)[nH]1 (stereo not given),inactive
16,Clc1ccccc1CSC1=NCCCN1,"inconclusive: 0.0517 µM [inhibitor, full curve, poor fit]"
17,CCc1c(C)nc2cc(-c3cc(OC)cc(OC)c3)nn2c1N1CCCC1,active: 3.66 µM
18,COc1ccc(NC(=O)Cn2c(=O)oc3cc(S(=O)(=O)N4CCC(C)CC4)ccc32)c(OC)c1,"inconclusive: 15.8 µM [inhibitor, single point]"
19,Cc1nc(Nc2nc3c(c(=O)[nH]2)CCC3)nc2ccccc12,"inconclusive: 29.1 µM [inhibitor, single point]"
20,CC(C)(C)NC(=O)C(=O)N/N=C/c1ccc(F)cc1,"inconclusive: 35.5 µM [activator, single point]"
21,O=C1CSC(=Nc2cccc(C(=O)O)c2)N1,"inconclusive: 0.1 µM [inhibitor, full curve, poor fit]"
22,CC1=C(C(=O)NCc2ccccc2)C(c2ccccc2OCC(N)=O)NC(=O)N1 (stereo not given),inactive
